Measurements reported in paper PMC9953885 (Biosensors, 2023).
Counter-ions that a name gives are not always drawn.

Target: T1, human pancreatic lipase (hPL) (Homo sapiens, UniProt P16233)
T1 construct: gene PNLIP
T1 sequence (P16233 17-465): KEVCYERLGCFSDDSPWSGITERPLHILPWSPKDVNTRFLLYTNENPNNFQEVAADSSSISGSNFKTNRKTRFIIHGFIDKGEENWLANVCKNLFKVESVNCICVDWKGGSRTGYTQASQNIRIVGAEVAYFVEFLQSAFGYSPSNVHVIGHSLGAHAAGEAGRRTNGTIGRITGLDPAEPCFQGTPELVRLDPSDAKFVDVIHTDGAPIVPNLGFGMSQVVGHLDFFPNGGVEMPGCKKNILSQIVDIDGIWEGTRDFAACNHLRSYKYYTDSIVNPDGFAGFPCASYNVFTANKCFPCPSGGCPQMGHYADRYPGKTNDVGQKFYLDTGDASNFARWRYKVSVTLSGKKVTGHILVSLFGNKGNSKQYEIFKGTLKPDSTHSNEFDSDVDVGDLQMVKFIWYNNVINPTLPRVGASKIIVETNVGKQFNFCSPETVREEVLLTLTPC
Conditions: 10 µM; inhibitor
Experimental: First, we evaluated the inhibitory effect of 94 natural products derived from herbs and 94 drugs on hPL. In our high-throughput screening system, 1 ug/mL hPL was used, and the final concentration of the 94 natural products derived from herbs and 94 drugs used was 10 μM. Other conditions were the same as in the selectivity experiments. […] RLE was incubated with hPL and various enzymes, such as hCES1A, hCES2A, CA, AchE, BchE, 5-HKE, lysozyme, trypsin, thrombin, α-CT, FAP, PREP, pepsin, α-amylase, plasmin, notum and hSA, in a 100 µL incubation mixture consisting of Tris-HCl (pH = 7.4, 25 mM), NaCl (150 mM), CaCl2 (1 mM) and porcine bile salt (0.1 mg/mL) at a concentration of 1.5 µg/mL. The reaction was initiated by adding RLE to the preincubated enzyme mixture at 37 °C, and metabolite formation was determined by measuring the fluorescence intensity of resorufin at 590 nm. In addition, several amino acids (IIe, His, Trp, Val, Leu, Tyr, Ala, Thr, Pro, Asp, Lys, Met, Cys, Ser, Phe, Gly, Glu and Gln), ions (Ni^2+, Ca^2+, Na^+, K^+, Cu^2+, Zn^2+, Mg^2+, NH4^+, Cu^+, Fe^2+ and CN^-) and GSH were measured. The concentration of these interfering factors was 5 μM. […] In this case, a visual high-throughput assay was established to screen hPL inhibitors, using RLE as a fluorogenic substrate in a 96-well microplate.

% of control remaining: 100.82%
SMILES: COc1cc2c(cc1OC)C(=O)C(CC1CCN(Cc3ccccc3)CC1)C2 (stereo not shown) [Donepezil Hydrochloride]
